Assay results reported in patent US20040014026A1 (YISSUM RESEARCH DEVELOPMENT COMPANY OF THE HEBREW …, published 2004).
These are yes or no findings as the source states them, for the method shown. For some assays here: Binding seen in cells or lysates may run through a third protein. Some entries that bind do so weakly or less than the wild type.

Sequences of proteins named here, by UniProt entry; tags and fusion partners are left off. A change or cut given only in a name is not applied to a line headed by its entry. A line that says so, or that is headed by a name, gives the form on record, which may keep a tag or linker. Residues count along the entry.
198 amino acid N-terminal fragment of hnRNP-U (N-198), Flag tagged (Q00839, residues 1-198): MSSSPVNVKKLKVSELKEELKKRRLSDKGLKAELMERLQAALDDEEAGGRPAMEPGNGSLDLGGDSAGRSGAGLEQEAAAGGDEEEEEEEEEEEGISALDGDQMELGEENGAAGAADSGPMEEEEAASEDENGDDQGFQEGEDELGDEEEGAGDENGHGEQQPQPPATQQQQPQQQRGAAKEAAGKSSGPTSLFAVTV
400 aa N-terminal fragment of hnRNP-U (N), Flag tagged (Q00839, form named): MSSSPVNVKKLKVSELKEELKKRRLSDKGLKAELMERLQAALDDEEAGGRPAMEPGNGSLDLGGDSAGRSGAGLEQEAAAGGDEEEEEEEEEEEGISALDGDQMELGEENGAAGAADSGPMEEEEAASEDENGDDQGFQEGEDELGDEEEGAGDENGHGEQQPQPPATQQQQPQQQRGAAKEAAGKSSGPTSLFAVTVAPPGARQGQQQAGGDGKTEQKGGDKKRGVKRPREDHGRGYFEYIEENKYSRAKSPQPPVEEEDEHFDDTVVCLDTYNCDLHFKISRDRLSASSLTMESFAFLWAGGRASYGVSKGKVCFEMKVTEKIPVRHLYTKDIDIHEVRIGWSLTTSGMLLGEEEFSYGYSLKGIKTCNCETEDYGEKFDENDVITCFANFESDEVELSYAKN
Flag-hnRNP-U-mNLS (lysines 224 and 228 substituted by alanine) (Q00839, form named): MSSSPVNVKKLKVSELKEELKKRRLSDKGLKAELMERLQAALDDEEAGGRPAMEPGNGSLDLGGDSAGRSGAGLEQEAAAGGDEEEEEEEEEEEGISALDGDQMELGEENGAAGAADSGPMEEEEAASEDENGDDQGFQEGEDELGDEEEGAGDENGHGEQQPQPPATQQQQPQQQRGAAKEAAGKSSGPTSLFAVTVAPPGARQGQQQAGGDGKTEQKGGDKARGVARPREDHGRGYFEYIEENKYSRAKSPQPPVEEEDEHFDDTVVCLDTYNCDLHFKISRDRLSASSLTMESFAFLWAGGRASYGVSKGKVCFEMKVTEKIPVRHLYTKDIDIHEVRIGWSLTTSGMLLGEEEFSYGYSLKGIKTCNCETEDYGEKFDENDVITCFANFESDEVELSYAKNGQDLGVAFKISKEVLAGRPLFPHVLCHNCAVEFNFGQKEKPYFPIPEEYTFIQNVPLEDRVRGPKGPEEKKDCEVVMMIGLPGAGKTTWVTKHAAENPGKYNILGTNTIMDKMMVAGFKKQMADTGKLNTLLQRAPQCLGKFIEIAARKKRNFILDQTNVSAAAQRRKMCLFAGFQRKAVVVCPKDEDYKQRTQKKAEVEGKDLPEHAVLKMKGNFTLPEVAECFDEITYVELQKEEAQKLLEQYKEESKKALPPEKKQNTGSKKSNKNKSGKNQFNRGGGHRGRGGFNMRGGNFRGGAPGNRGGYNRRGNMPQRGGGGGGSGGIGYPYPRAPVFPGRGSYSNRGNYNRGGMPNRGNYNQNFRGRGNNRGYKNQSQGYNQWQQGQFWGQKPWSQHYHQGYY
Flag-tagged human hnRNP-U (Q00839, form named): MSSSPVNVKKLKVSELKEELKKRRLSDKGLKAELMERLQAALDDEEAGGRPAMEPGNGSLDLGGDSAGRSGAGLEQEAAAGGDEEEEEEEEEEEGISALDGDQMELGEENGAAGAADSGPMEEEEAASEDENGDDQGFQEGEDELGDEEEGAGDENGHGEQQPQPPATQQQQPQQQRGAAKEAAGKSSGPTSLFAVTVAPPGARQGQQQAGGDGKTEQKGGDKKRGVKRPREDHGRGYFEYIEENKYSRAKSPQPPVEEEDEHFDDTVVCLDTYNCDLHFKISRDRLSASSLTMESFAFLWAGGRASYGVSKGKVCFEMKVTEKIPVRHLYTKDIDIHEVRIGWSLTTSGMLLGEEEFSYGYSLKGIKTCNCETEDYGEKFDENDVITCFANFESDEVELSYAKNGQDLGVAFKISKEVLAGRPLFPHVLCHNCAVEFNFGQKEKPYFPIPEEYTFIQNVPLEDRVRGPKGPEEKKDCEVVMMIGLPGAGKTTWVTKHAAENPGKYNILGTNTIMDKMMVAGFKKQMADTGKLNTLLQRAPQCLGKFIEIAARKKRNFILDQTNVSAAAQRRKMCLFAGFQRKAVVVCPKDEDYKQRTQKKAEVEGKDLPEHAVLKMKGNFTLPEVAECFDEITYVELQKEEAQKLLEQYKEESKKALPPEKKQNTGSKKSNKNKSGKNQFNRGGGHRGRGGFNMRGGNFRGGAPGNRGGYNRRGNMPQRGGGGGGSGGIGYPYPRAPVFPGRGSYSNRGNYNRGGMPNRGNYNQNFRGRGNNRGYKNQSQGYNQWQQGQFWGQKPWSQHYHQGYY
hnRNP-U (endogenous protein of 293/293T cells) (Q00839, form named): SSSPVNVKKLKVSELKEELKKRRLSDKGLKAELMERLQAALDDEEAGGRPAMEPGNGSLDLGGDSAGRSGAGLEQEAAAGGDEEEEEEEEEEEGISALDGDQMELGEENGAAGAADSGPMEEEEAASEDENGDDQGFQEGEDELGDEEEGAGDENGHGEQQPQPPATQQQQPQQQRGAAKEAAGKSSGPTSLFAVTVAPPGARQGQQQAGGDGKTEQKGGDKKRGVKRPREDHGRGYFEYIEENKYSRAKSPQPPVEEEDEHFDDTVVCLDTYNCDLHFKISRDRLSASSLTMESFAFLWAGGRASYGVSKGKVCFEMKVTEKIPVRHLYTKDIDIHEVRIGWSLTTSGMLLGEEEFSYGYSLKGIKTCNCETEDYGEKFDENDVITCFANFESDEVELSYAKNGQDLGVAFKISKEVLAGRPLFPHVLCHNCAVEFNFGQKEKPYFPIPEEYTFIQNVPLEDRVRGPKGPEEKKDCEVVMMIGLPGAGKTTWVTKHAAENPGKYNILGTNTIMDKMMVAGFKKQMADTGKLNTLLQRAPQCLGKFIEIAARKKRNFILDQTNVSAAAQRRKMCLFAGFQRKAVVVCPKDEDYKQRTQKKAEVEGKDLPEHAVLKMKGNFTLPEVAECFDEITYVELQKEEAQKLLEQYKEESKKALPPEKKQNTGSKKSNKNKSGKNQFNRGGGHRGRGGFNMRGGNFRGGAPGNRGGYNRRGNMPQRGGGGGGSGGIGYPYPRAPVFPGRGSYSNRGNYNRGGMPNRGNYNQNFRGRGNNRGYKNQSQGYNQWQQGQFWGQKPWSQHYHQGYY
UniProt Q8VEK3: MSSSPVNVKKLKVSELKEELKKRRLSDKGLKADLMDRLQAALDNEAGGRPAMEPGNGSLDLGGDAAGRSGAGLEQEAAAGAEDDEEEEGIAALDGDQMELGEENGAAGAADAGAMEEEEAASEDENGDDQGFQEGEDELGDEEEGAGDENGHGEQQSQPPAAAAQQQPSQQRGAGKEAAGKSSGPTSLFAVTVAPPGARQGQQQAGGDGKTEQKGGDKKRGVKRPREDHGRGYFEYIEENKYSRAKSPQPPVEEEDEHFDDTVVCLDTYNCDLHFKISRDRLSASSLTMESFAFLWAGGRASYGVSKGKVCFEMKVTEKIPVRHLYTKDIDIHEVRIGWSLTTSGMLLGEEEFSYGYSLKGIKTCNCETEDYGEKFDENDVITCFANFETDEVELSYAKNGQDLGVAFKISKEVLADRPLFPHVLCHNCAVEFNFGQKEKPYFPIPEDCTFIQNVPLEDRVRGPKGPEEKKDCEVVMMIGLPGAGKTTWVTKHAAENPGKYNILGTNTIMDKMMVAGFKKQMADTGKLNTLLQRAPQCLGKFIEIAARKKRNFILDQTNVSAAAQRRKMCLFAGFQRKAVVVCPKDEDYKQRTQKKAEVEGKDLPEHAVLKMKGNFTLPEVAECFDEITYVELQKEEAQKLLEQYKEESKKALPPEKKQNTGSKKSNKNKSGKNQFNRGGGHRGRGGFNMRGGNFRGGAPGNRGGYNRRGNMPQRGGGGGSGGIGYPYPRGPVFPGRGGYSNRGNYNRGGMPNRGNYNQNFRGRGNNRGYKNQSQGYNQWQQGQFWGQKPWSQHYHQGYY
UniProt P63208: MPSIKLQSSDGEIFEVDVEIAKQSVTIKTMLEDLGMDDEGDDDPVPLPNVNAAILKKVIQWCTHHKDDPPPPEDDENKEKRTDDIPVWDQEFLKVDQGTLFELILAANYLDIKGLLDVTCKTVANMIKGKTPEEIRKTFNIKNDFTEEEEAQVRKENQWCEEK

What was measured:
[1] = target: HA-E3RS (human) (UniProt Q9Y297); experiment: co-transfection with HA-E3RS in 293 cells, anti-Flag immunoprecipitation, Western blot
[2] = target: GFP-E3RS (UniProt Q9Y297); experiment: interaction assay not described, data not shown
[3] = target: Flag-tagged human hnRNP-U (human) (UniProt Q00839); experiment: co-transfection in 293T cells, anti-Flag immunoprecipitation, anti-HA Western blot
[4] = target: Flag-tagged mouse hnRNP-U (mouse) (UniProt Q8VEK3); experiment: as above
[5] = target: Flag-tagged E3RS/βTrCP (Flag-E3RS) (UniProt Q9Y297); experiment: co-expression in 293T cells, anti-Flag immunoprecipitation, Coomassie
[6] = target: hnRNP-U (endogenous protein of 293/293T cells) (UniProt Q00839); experiment: anti-Flag immunopurification, Flag-peptide elution, Coomassie
[7] = target: hnRNP-U (endogenous protein of 293/293T cells) (UniProt Q00839); experiment: co-immunoprecipitation with polyclonal anti-hnRNP-U serum, Western blot
[8] = target: hnRNP-U (endogenous protein of 293/293T cells) (UniProt Q00839); experiment: anti-Flag immunoprecipitation after heat shock with co-expressed Myc-Skp1, Coomassie
[9] = target: hnRNP-U (endogenous protein of 293/293T cells) (UniProt Q00839); experiment: anti-Flag immunoprecipitation from 293T cells, Western blot with monoclonal anti-hnRNP-U

198 amino acid N-terminal fragment of hnRNP-U (N-198), Flag tagged (from UniProt Q00839 1-198)
binding [1]: binds

400 aa N-terminal fragment of hnRNP-U (N), Flag tagged (from UniProt Q00839 1-405)
binding [1]: binds

Flag-hnRNP-U-mNLS (lysines 224 and 228 substituted by alanine) (from UniProt Q00839 1-806)
binding [2]: binds

Flag-tagged human hnRNP-U (from UniProt Q00839 1-806)
binding [1]: binds

HA-E3RS (from UniProt Q9Y297 1-605)
binding [3]: binds
binding [4]: binds

Myc-Skp1 (from UniProt P63208 1-163)
binding [5]: binds

WDK1 (Flag-WD with Lys 304 mutated to Ala) (from UniProt Q9Y297 229-605)
binding [6]: binds

B1: Flag-tagged E3RS/βTrCP (Flag-E3RS) (other, UniProt Q9Y297 1-605, looked up, not shown: small tags and cut ends)
chain: MDPAEAVLQEKALKFMCSMPRSLWLGCSSLADSMPSLRCLYNPGTGALTAFQNSSEREDCNNGEPPRKIIPEKNSLRQTYNSCARLCLNQETVCLASTAMKTENCVAKTKLANGTSSMIVPKQRKLSASYEKEKELCVKYFEQWSESDQVEFVEHLISQMCHYQHGHINSYLKPMLQRDFITALPARGLDHIAENILSYLDAKSLCAAELVCKEWYRVTSDGMLWKKLIERMVRTDSLWRGLAERRGWGQYLFKNKPPDGNAPPNSFYRALYPKIIQDIETIESNWRCGRHSLQRIHCRSETSKGVYCLQYDDQKIVSGLRDNTIKIWDKNTLECKRILTGHTGSVLCLQYDERVIITGSSDSTVRVWDVNTGEMLNTLIHHCEAVLHLRFNNGMMVTCSKDRSIAVWDMASPTDITLRRVLVGHRAAVNVVDFDDKYIVSASGDRTIKVWNTSTCEFVRTLNGHKRGIACLQYRDRLVVSGSSDNTIRLWDIECGACLRVLEGHEELVRCIRFDNKRIVSGAYDGKIKVWDLVAALDPRAPAGTLCLRTLVEHSGRVFRLQFDEFQIVSSSHDDTILIWDFLNDPAAQAEPPRSPSRTYTYISR
notes: F-box protein, receptor subunit of the IκB-E3; Immunopurified material may carry endogenous Skp1/Cul1; also called β-TrCP/E3RS; WT E3RS
binding [7]: binds
binding [8]: binds
binding [9]: binds
